Data from patent US20240082409A1 (priority 2020, published 2024).

Assay: peptide synthesis
Details: conjugation step, RP-HPLC

## Glp-His-DPal-Ser-Tyr-DLys[dPEG3-Val-Cit-PABC-MMAE]-Leu-Arg-Pro-DAla-amide
  final HPLC purity: 97.9%
